Reference: paper PMC9701222, “Molecular basis for DNA recognition by the maternal pioneer transcription factor FoxH1”
The exact form of at least one protein or probe is not confirmed. The direction of at least one scale is not stated here. Tags and fusion partners may be left off the protein sequences shown.

Tests used:
[1] = molecular target: T1, dFoxH1 FH (Danio rerio) (UniProt Q9I9E1); assay: DSF; settings: Tm 40.7 free, recombinant protein, residues 86-210, protein details: His-SUMO removed (Ulp1)
T1 sequence (looked up): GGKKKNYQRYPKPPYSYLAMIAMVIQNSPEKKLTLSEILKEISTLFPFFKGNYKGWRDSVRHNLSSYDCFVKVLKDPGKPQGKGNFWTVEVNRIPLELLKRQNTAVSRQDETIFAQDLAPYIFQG

[2] = molecular target: T2, hFoxA2 FH (Homo sapiens) (UniProt Q9Y261); assay: DSF; settings: Tm 46.6 free, recombinant protein, residues 153-273, protein details: His-SUMO removed (Ulp1)
T2 sequence (looked up): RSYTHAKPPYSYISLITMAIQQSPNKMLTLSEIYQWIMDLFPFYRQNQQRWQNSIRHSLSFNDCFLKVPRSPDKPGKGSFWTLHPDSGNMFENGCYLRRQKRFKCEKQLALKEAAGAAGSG

Sequence: AGATTGTGTATTGAGA (double strand) [dGSC-GT-16a]
- binding signal ([1]; 61.1 bound): 20.4 C (delta Tm)
- binding signal ([2]; 50.8 bound): 4.2 C (delta Tm)

Sequence: AGATTGTTTACTGAGA (double strand) [FKH-TTACT-GSCflank]
- binding signal ([1]; 57.4 bound): 16.7 C (delta Tm)
- binding signal ([2]; 56.4 bound): 9.8 C (delta Tm)

Sequence: AGATTGTTTATTGAGA (double strand) [dGSC-TT-16a]
- binding signal ([1]; 59.9 bound): 19.2 C (delta Tm)
- binding signal ([2]; 54.4 bound): 7.8 C (delta Tm)
